The supplement of paper PMC12823440, “Inhibitors supercharge kinase turnover through native proteolytic circuits” (Nature, 2025)
Counter-ions that a name gives are not always drawn. The list shows a part of the results. The calls rarely recur for the same compound in another form.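 Kinases were expressed as nanoluciferase fusions in K562 cells and luminescence was read every 4 h between 2 and 18 h as percent of control, DMSO set to 100% and a positive control to 0%. A time point counts as decreased when the signal drops significantly (2 sigma). The hit call is the authors' own, does not follow from the count of time points alone, and its rule is not shown.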

Amino acid sequences for entries named in this document (tags omitted). A change or cut given only in a name is not applied to a line headed by its entry.
UniProt O75460: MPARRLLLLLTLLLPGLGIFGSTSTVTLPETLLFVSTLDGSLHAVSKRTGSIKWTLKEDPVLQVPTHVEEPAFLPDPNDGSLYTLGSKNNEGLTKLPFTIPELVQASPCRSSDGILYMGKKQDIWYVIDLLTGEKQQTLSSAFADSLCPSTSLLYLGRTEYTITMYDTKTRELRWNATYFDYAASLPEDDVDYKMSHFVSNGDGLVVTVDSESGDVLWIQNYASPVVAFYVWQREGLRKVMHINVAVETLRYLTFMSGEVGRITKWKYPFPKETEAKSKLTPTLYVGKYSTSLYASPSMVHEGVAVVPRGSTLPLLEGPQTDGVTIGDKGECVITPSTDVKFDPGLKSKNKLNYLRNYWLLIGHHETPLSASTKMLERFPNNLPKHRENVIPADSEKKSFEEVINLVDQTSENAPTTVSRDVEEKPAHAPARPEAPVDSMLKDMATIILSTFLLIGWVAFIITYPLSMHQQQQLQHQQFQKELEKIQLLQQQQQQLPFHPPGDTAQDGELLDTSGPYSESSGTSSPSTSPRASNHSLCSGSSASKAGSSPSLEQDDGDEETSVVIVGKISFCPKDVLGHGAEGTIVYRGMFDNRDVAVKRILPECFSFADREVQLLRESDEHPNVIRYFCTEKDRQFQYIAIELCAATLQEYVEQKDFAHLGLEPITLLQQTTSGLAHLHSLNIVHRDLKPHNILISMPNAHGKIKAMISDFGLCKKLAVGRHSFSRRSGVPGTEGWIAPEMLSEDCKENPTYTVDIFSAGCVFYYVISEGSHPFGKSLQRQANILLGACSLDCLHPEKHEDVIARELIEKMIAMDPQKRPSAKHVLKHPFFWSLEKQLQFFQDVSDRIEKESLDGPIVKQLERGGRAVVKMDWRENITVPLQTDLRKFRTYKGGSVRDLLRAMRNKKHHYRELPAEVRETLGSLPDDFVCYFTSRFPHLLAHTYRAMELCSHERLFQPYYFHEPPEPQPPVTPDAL
UniProt P21802, whole entry, looked up: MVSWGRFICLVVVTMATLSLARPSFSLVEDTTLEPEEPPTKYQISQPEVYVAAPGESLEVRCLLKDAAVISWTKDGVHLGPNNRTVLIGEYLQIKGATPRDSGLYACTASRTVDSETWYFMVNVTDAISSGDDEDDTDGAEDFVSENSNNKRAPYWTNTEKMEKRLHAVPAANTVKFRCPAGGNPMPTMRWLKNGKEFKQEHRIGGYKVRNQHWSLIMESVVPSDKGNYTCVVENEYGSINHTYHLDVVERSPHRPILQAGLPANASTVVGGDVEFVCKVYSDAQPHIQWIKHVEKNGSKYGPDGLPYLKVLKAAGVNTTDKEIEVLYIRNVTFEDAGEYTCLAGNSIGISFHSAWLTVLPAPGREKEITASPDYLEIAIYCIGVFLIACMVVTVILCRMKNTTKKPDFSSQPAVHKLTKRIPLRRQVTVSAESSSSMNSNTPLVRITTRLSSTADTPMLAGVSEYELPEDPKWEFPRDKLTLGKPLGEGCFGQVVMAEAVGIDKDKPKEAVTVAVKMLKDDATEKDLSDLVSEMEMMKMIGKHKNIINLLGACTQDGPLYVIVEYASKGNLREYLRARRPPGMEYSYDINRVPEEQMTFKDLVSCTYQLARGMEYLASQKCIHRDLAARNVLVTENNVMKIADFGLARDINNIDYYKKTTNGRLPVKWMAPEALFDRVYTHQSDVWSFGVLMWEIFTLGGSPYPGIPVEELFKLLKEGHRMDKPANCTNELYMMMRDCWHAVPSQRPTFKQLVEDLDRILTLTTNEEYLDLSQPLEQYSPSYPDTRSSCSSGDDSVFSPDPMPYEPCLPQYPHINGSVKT
UniProt P22607, whole entry, looked up: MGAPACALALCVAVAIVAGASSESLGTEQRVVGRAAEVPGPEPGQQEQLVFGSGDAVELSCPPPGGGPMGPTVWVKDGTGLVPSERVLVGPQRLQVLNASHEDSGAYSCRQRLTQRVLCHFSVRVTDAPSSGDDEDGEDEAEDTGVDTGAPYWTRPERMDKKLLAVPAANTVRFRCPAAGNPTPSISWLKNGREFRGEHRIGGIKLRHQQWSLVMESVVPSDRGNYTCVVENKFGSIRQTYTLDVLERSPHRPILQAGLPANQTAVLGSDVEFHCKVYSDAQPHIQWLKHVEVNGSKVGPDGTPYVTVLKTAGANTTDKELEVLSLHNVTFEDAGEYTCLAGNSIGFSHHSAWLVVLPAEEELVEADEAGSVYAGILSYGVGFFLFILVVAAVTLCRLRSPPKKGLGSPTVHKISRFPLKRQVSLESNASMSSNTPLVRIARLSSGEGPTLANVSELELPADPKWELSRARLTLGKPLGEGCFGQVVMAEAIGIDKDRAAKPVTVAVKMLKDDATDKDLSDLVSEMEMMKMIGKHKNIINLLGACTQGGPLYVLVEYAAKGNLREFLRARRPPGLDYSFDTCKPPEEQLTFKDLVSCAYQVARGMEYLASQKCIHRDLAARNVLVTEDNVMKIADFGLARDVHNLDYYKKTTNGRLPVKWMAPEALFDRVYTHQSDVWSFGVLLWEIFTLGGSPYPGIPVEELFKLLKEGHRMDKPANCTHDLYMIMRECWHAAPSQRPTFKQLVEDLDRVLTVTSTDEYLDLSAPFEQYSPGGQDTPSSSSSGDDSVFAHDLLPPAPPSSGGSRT
UniProt P36888, whole entry: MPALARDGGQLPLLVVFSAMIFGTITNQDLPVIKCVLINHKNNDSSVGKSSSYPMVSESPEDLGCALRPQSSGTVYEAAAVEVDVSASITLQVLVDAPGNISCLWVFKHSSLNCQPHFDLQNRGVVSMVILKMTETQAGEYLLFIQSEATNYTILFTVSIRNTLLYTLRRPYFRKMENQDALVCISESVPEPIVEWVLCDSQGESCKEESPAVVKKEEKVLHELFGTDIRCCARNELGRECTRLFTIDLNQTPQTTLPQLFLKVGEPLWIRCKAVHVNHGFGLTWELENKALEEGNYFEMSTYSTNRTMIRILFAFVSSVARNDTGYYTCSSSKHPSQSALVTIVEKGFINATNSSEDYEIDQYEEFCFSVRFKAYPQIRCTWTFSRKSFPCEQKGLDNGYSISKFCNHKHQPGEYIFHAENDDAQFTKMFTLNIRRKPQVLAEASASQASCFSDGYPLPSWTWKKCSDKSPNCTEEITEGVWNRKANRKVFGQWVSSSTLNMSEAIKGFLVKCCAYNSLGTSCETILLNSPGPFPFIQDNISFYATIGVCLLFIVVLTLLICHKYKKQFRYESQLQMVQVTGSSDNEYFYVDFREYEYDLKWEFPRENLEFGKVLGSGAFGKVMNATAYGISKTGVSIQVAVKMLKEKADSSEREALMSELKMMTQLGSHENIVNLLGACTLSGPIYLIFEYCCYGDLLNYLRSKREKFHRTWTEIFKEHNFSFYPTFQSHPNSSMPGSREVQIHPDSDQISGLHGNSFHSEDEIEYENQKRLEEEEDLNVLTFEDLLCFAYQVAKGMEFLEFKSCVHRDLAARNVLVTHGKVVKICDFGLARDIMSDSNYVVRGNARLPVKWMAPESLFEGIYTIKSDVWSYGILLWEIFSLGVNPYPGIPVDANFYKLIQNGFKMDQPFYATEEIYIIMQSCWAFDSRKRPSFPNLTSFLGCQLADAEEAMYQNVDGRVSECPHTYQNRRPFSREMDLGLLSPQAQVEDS
UniProt P06241, whole entry, looked up: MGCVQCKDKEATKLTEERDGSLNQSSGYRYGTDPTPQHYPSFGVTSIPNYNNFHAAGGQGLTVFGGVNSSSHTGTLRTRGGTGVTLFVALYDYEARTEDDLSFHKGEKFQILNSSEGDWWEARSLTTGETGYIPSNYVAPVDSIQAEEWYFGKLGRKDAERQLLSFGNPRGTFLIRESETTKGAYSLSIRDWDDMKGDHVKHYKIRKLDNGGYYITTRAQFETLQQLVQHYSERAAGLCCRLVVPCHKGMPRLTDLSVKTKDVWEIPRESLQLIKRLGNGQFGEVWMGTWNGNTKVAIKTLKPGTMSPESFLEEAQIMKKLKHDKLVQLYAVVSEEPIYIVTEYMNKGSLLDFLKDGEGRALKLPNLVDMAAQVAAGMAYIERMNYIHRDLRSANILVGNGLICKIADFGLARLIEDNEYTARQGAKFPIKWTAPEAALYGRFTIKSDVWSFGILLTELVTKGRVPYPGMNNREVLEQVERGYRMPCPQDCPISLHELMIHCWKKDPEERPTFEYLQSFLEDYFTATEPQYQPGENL
UniProt P49840: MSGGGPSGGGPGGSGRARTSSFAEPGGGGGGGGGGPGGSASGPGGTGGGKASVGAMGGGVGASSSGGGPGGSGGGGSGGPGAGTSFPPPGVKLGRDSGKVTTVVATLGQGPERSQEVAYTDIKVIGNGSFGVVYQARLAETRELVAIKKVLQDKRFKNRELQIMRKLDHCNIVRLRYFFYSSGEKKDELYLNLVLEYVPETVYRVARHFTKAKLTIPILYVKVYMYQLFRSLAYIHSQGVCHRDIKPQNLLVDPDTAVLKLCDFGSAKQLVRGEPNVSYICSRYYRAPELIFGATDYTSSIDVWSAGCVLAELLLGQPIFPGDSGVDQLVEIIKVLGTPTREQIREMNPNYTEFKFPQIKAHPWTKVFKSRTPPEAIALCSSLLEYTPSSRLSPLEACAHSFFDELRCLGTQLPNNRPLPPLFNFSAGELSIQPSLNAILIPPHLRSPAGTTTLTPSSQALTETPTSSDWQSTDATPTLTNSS
UniProt P14616: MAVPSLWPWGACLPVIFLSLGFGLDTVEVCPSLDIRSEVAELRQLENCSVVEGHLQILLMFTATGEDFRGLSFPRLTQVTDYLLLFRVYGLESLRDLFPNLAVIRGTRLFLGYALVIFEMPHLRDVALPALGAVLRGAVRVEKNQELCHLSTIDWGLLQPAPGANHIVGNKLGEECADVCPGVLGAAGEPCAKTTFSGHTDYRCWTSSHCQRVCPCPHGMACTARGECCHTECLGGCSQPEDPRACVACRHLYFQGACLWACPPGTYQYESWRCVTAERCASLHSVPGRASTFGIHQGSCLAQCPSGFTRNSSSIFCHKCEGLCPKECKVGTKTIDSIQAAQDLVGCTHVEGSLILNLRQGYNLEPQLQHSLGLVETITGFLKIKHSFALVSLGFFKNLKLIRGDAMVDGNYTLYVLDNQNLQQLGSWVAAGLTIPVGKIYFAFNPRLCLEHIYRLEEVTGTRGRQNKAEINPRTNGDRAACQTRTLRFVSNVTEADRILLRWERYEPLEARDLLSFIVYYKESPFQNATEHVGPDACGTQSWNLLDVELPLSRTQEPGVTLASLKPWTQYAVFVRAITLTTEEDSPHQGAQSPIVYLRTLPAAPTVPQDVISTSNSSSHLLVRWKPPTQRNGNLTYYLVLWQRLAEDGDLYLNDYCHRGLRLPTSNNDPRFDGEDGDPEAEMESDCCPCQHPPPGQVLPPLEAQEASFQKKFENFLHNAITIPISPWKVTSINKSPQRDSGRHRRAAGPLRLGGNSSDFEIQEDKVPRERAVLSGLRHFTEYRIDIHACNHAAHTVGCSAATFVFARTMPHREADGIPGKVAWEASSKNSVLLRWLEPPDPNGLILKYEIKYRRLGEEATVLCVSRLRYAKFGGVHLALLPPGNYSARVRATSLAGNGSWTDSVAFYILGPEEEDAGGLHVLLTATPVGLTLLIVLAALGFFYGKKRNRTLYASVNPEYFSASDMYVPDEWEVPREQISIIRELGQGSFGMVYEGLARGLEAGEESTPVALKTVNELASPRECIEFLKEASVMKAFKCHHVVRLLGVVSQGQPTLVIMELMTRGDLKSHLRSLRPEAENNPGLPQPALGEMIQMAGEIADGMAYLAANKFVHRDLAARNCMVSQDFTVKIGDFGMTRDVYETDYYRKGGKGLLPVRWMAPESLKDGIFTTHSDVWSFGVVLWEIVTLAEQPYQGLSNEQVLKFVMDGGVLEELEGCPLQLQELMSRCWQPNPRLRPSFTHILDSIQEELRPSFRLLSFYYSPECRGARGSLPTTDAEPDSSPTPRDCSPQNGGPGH

Tests used:
Test in all cases: kinase-Nluc reporter destabilization hit call (1 = scored as downregulated) (binary); higher = compound decreases kinase abundance
Conditions in all cases: K562; 2-18 h
ERN1 = ERN1 (UniProt O75460)
FGFR1 = FGFR1 (UniProt P11362)
FGFR2 = FGFR2 (UniProt P21802)
FGFR3 = FGFR3 (UniProt P22607)
FGR = FGR (UniProt P09769)
FLT3 = FLT3 (UniProt P36888)
FYN = FYN (UniProt P06241)
GSK3A = GSK3A (UniProt P49840)
HER2 = HER2 (UniProt P04626)
INSRR = INSRR (UniProt P14616)

Measured: kinase-Nluc reporter destabilization hit call

CNCCOc1ccccc1C1(Nc2nccn(-c3cc(C(=O)NC4CC4)cc(F)c3C)c2=O)CC1 (10 µM)
inactive: ERN1 = 0 | FGFR1 = 0 | FGFR2 = 0 | FGFR3 = 0 | FGR 0 | FLT3 = 0 | FYN 0 | GSK3A 0 | HER2 = 0 | INSRR 0

Nc1ccc(Sc2nc3ccccc3s2)c(Cl)c1 [KRAS inhibitor-9] (10 µM)
inactive: ERN1 = 0 | FGFR1 = 0 | FGFR2 = 0 | FGFR3 = 0 | FGR 0 | FLT3 = 0 | FYN 0 | GSK3A 0 | HER2 = 0 | INSRR 0

O=C1C=CC2=C3c4cc(O)c(O)cc4CC3(O)COC2=C1O (stereo not given) [Hematein] (10 µM)
inactive: ERN1 = 0 | FGFR1 = 0 | FGFR2 = 0 | FGFR3 = 0 | FGR 0 | FLT3 = 0 | FYN 0 | GSK3A 0 | HER2 = 0 | INSRR 0

CN(C)CCOc1cc(-c2cn[nH]c2)ccc1NC(=O)C1COc2ccccc2O1 (stereo not given) (10 µM)
inactive: ERN1 = 0 | FGFR1 = 0 | FGFR2 = 0 | FGFR3 = 0 | FGR 0 | FLT3 = 0 | FYN 0 | GSK3A 0 | HER2 = 0 | INSRR 0

CN(C)CCn1cc2cc(NC(=O)c3cccc(C(F)(F)F)n3)c(C(C)(C)O)cc2n1 (10 µM)
inactive: ERN1 = 0 | FGFR1 = 0 | FGFR2 = 0 | FGFR3 = 0 | FGR 0 | FLT3 = 0 | FYN 0 | GSK3A 0 | HER2 = 0 | INSRR 0

CCc1cc(Nc2nccc(-c3c(-c4ccc(OC)c(C(=O)Nc5c(F)cccc5F)c4)nc4ccccn34)n2)c(OC)cc1N1CCC(N2CCN(S(C)(=O)=O)CC2)CC1 (2.5 µM)
inactive: ERN1 = 0 | FGFR1 = 0 | FGFR2 = 0 | FGFR3 = 0 | FGR 0 | FLT3 = 0 | FYN 0 | GSK3A 0 | HER2 = 0 | INSRR 0

CC(C)Cn1ncc2cc(Oc3ccc(F)cc3F)c(C(=O)NCCN(C)C)cc21 [p38α inhibitor 1] (10 µM)
inactive: ERN1 = 0 | FGFR1 = 0 | FGFR2 = 0 | FGFR3 = 0 | FGR 0 | FLT3 = 0 | FYN 0 | GSK3A 0 | HER2 = 0 | INSRR 0

CC(C)c1cc2c(c(O)c1O)[C@@]13CCCC(C)(C)[C@@H]1C[C@@H]2OC3=O [Carnosol] (2.5 µM)
inactive: ERN1 = 0 | FGFR1 = 0 | FGFR2 = 0 | FGFR3 = 0 | FGR 0 | FLT3 = 0 | FYN 0 | GSK3A 0 | HER2 = 0 | INSRR 0

Cc1ncsc1-c1ccc(CNC(=O)[C@@H]2C[C@@H](O)CN2C(=O)[C@@H](NC(=O)COCCOc2ccc(-c3cc(Nc4ccc(OC(F)(F)F)cc4)ncn3)cc2)C(C)(C)C)cc1 (2.5 µM)
inactive: ERN1 = 0 | FGFR1 = 0 | FGFR2 = 0 | FGFR3 = 0 | FGR 0 | FLT3 = 0 | FYN 0 | GSK3A 0 | HER2 = 0 | INSRR 0

CC(C1CC1)n1cnc2c(NCc3cccc(C(F)(F)F)c3)nc(NCCN(C)C)nc21 (stereo not given) (10 µM)
inactive: ERN1 = 0 | FGFR1 = 0 | FGFR2 = 0 | FGFR3 = 0 | FGR 0 | FLT3 = 0 | FYN 0 | GSK3A 0 | HER2 = 0 | INSRR 0

Nc1[nH]nc2nnc(-c3c(-c4ccccc4)nn4ccccc34)cc12 (10 µM)
inactive: ERN1 = 0 | FGFR1 = 0 | FGFR2 = 0 | FGFR3 = 0 | FGR 0 | FLT3 = 0 | FYN 0 | GSK3A 0 | HER2 = 0 | INSRR 0

Cc1nc(Nc2cnn(C3CCNCC3)c2)nc2c1N(C)C(=O)c1cc3ccccc3cc1N2C (2.5 µM)
inactive: ERN1 = 0 | FGFR1 = 0 | FGFR2 = 0 | FGFR3 = 0 | FGR 0 | FLT3 = 0 | FYN 0 | GSK3A 0 | HER2 = 0 | INSRR 0

COc1cc2c(cc1OC)[C@@H]1C(=O)c3ccc4c(c3O[C@@H]1CO2)C=CC(C)(C)O4 [Deguelin] (10 µM)
inactive: ERN1 = 0 | FGFR1 = 0 | FGFR2 = 0 | FGFR3 = 0 | FGR 0 | FLT3 = 0 | FYN 0 | GSK3A 0 | HER2 = 0 | INSRR 0

CC(C)n1cnc2c(Nc3cccc(Cl)c3)nc(N[C@H]3CCCC[C@@H]3N)nc21 (2.5 µM)
inactive: ERN1 = 0 | FGFR1 = 0 | FGFR2 = 0 | FGFR3 = 0 | FGR 0 | FLT3 = 0 | FYN 0 | GSK3A 0 | HER2 = 0 | INSRR 0

Copied from the results shown (2 entries):
Cc1ncsc1-c1ccc(CNC(=O)[C@@H]2C[C@@H](O)CN2C(=O)[C@@H](NC(=O)COCCOc2ccc(-c3cc(Nc4ccc(OC(F)(F)F)cc4)ncn3)cc2)C(C)(C)C)cc1 (2.5 µM)
inactive: ERN1 = 0 | FGFR1 = 0 | FGFR2 = 0 | FGFR3 = 0 | FGR 0 | FLT3 = 0 | FYN 0 | GSK3A 0 | HER2 = 0 | INSRR 0

CC(C1CC1)n1cnc2c(NCc3cccc(C(F)(F)F)c3)nc(NCCN(C)C)nc21 (stereo not given) (10 µM)
inactive: ERN1 = 0 | FGFR1 = 0 | FGFR2 = 0 | FGFR3 = 0 | FGR 0 | FLT3 = 0 | FYN 0 | GSK3A 0 | HER2 = 0 | INSRR 0

Later entries.

COc1ccc2cc1Oc1ccc(cc1)C[C@H]1c3cc(c(OC)cc3CCN1C)Oc1c(O)c(OC)cc3c1[C@H](C2)N(C)CC3 [Fangchinoline] (2.5 µM)
inactive: ERN1 = 0 | FGFR1 = 0 | FGFR2 = 0 | FGFR3 = 0 | FGR 0 | FLT3 = 0 | FYN 0 | GSK3A 0 | HER2 = 0 | INSRR 0

CN1CCC(Nc2ccc(C(=O)Nc3cc(-c4ccc5c(c4)OCO5)[nH]n3)cc2)CC1 (10 µM)
inactive: ERN1 = 0 | FGFR1 = 0 | FGFR2 = 0 | FGFR3 = 0 | FGR 0 | FLT3 = 0 | FYN 0 | GSK3A 0 | HER2 = 0 | INSRR 0

O=C(NCc1ccn[nH]1)c1cc([C@@H]2CCNC[C@H]2COc2ccc3c(c2)OCO3)ccc1F [GRK2-IN-1 (hydrochloride)] (10 µM)
inactive: ERN1 = 0 | FGFR1 = 0 | FGFR2 = 0 | FGFR3 = 0 | FGR 0 | FLT3 = 0 | FYN 0 | GSK3A 0 | HER2 = 0 | INSRR 0

CC(C)n1c(CO)nc2c(F)cc(-c3nc(Nc4ccc(CN5CCNCC5)cn4)ncc3F)cc21 (10 µM)
inactive: ERN1 = 0 | FGFR1 = 0 | FGFR2 = 0 | FGFR3 = 0 | FGR 0 | FLT3 = 0 | FYN 0 | GSK3A 0 | HER2 = 0 | INSRR 0

O=C1OC(COc2ccccc2[N+](=O)[O-])CC1Cc1ccccc1 (stereo not given) (10 µM)
inactive: ERN1 = 0 | FGFR1 = 0 | FGFR2 = 0 | FGFR3 = 0 | FGR 0 | FLT3 = 0 | FYN 0 | GSK3A 0 | HER2 = 0 | INSRR 0

CNC(=O)CN1CCC(Oc2cc3c(Nc4cccc(Cl)c4F)ncnc3cc2OC)CC1 [Sapitinib] (10 µM)
inactive: ERN1 = 0 | FGFR1 = 0 | FGFR2 = 0 | FGFR3 = 0 | FGR 0 | FLT3 = 0 | FYN 0 | GSK3A 0 | HER2 = 0 | INSRR 0

O=C(C#Cc1ccccc1)c1cccc([N+](=O)[O-])c1 (10 µM)
inactive: ERN1 = 0 | FGFR1 = 0 | FGFR2 = 0 | FGFR3 = 0 | FGR 0 | FLT3 = 0 | FYN 0 | GSK3A 0 | HER2 = 0 | INSRR 0

Cc1ncc(-c2cc(F)c(O)c(F)c2)cc1-c1cc(F)c(O)c(F)c1 (10 µM)
inactive: ERN1 = 0 | FGFR1 = 0 | FGFR2 = 0 | FGFR3 = 0 | FGR 0 | FLT3 = 0 | FYN 0 | GSK3A 0 | HER2 = 0 | INSRR 0

CCOC(=O)c1c(N2CCc3ccc(OC)cc3C2)oc(C=C2C=Nc3ncccc32)c1O (10 µM)
inactive: ERN1 = 0 | FGFR1 = 0 | FGFR2 = 0 | FGFR3 = 0 | FGR 0 | FLT3 = 0 | FYN 0 | GSK3A 0 | HER2 = 0 | INSRR 0

NC(=O)c1cnc(N[C@@H]2CCCC[C@@H]2N)nc1Nc1cccc(-n2nccn2)c1 (2.5 µM)
inactive: ERN1 = 0 | FGFR1 = 0 | FGFR2 = 0 | FGFR3 = 0 | FGR 0 | FLT3 = 0 | FYN 0 | GSK3A 0 | HER2 = 0 | INSRR 0

COc1cc2nnc(C(N)=O)c(Nc3ccc(C)cc3F)c2cc1N1CCN(CCO)CC1 (2.5 µM)
inactive: ERN1 = 0 | FGFR1 = 0 | FGFR2 = 0 | FGFR3 = 0 | FGR 0 | FLT3 = 0 | FYN 0 | GSK3A 0 | HER2 = 0 | INSRR 0

O=C(Nc1ccccc1C(=O)NC1CCCCNC1=O)c1cc2ccccc2s1 (stereo not given) (10 µM)
inactive: ERN1 = 0 | FGFR1 = 0 | FGFR2 = 0 | FGFR3 = 0 | FGR 0 | FLT3 = 0 | FYN 0 | GSK3A 0 | HER2 = 0 | INSRR 0

CCOc1cc(=O)[nH]cc1-c1ccc(CC(=O)Nc2cc(C(C)(C)C(F)(F)F)on2)c(F)c1 (10 µM)
inactive: ERN1 = 0 | FGFR1 = 0 | FGFR2 = 0 | FGFR3 = 0 | FGR 0 | FLT3 = 0 | FYN 0 | GSK3A 0 | HER2 = 0 | INSRR 0

Cn1cc(C2=C(c3ccc(Cl)cc3Cl)C(=O)NC2=O)c2ccccc21 (10 µM)
inactive: ERN1 = 0 | FGFR1 = 0 | FGFR2 = 0 | FGFR3 = 0 | FGR 0 | FLT3 = 0 | FYN 0 | GSK3A 0 | HER2 = 0 | INSRR 0

COCCNc1cc(NC(=O)N2CCCc3cc(CN4CCOCC4=O)c(C=O)nc32)ncc1C#N (10 µM)
inactive: ERN1 = 0 | FGFR1 = 0 | FGFR2 = 0 | FGFR3 = 0 | FGR 0 | FLT3 = 0 | FYN 0 | GSK3A 0 | HER2 = 0 | INSRR 0

CC(=O)O[C@@H]1[C@@H](OC(C)=O)[C@@H](O)[C@H](Oc2c(-c3ccc(O)cc3)oc3cc(O)cc(O)c3c2=O)O[C@H]1C (10 µM)
inactive: ERN1 = 0 | FGFR1 = 0 | FGFR2 = 0 | FGFR3 = 0 | FGR 0 | FLT3 = 0 | FYN 0 | GSK3A 0 | HER2 = 0 | INSRR 0
